The target in assay [1] is PIST (PDZ-domain protein interacting specifically with TC10) (rat (endogenous in rat kidney)). Nature of the assay: co-IP; anti-PIST polyclonal antibody, ProFound Mammalian Coimmunoprecipitation kit; total homogenate of kidney cortex from rats fed a control diet (0.6% Pi); Western blot for NaPi-2a.
The target is the same in assay [2]. As to the kind of experiment: co-IP; anti-PIST polyclonal antibody, ProFound Mammalian Coimmunoprecipitation kit; non-BBM homogenates of kidneys from rats acutely adapted for 4 hours from low to high (0.1% to 1.2%) or from high to low (1.2% to 0.1%) Pi diet; Western blot for NaPi-2a.

No constants are given. Whether binding was seen depends on the method and setting. In cells and extracts the contact can be indirect. A result given as binding can be weak or reduced; the word gives no strength.

B1: NaPi-2a (protein, UniProt Q06496 1-637)
chain: MMSYSERLGGPAVSPLPVRGRHMVHGAAFAYVPSPQVLHRIPGTTTYAISSLSPVALTEHSCPYGEVLECHDPLPAKLAQEEEQKPEPRLSQKLAQVGTKLLKVPLMLGFLYLFVCSLDVLSSAFQLAGGKVAGDIFKDNAILSNPVAGLVVGILVTVLVQSSSTSTSIIVSMVSSGLLEVSSAIPIIMGSNIGTSVTNTIVALMQAGDRTDFRRAFAGATVHDCFNWLSVLVLLPLEAATGYLHHVTGLVVASFNIRGGRDAPDLLKVITEPFTKLIIQLDKSVITSIAVGDESLRNHSLIRIWCQPETKEASTSMSRVEAIGSLANTTMEKCNHIFVDTGLPDLAVGLILLAGSLVVLCTCLILLVKMLNSLLKGQVANVIQKVINTDFPAPFTWVTGYFAMVVGASMTFVVQSSSVFTSAITPLIGLGVISIERAYPLTLGSNIGTTTTAILAALASPREKLSSSFQIALCHFFFNISGILLWYPLPCTRLPIRMAKALGKRTAKYRWFAVLYLLVCFLLLPSLVFGISMAGWQAMVGVGTPFGALLAFVVLVNVLQSRSPGHLPKWLQTWDFLPRWMHSLQPLDGLITRATLCYARPEPRSPQLPPRVFLEELPPATPSPRLALPAHHNATRL
Regarding B1, the binding entry is reported as “binds weakly” in assay [1] and “binds” in assay [2].
